# Laboratory results as given in the supplement of paper PMC8728848.
# The list shows a part of the results.
# B1: CBP21 (Serratia marcescens), O83009 (protein)
# chain: MNKTSRTLLSLGLLSAAMFGVSQQANAHGYVESPASRAYQCKLQLNTQCGSVQAEPQSVEGLKGFPQAGPADGHIASADKSTFFELDQQTPTRWNKLNLKTGPNSFTWKLTARHSTTSWRYFITKPNWDASQPLTRASFDLTPFCQFNDGGAIPAAQVTHQCNIPADRSGSHVILAVWDIADTANAFYQAIDVNLSK
# Legend:
# Experiment in all cases: glycan array binding signal (z-score within array); higher = stronger binding
# Conditions in all cases: glycan notation: IUPAC condensed, linker removed; mutation: Y54A
# [1] = biological target: Neu5Ac(a2-6)Gal(b1-4)GlcNAc(b1-6)[Gal(b1-3)GlcNAc(b1-3)]Gal(b1-4)Glc
# Summary of the method: (§1)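 Negative Z-scores can be read as non-binding. The Z-score is calculated within each array and then averaged across arrays of one protein sequence at different concentrations or buffers and across linkers. Arrays, 3228 in all, were curated from the Consortium for Functional Glycomics database and kept only where the protein sequence was available.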
# [2] = biological target: Neu5Ac(a2-6)Gal(b1-4)GlcNAc(b1-6)[Gal(b1-3)]GalNAc
# Summary of the method: as §1
# [3] = biological target: Neu5Ac(a2-6)Gal(b1-4)GlcNAc6S
# Summary of the method: as §1
# [4] = biological target: Neu5Ac(a2-6)GalNAc
# Summary of the method: as §1
# [5] = biological target: Neu5Ac(a2-6)GalNAc(b1-4)GlcNAc
# Summary of the method: as §1
# [6] = biological target: Neu5Ac(a2-6)GalNAc(b1-4)GlcNAc6S
# Summary of the method: as §1
# [7] = biological target: Neu5Ac(a2-6)GlcNAc(b1-4)GlcNAc
# Summary of the method: as §1
# [8] = biological target: Neu5Ac(a2-6)GlcNAc(b1-4)GlcNAc(b1-4)GlcNAc
# Summary of the method: as §1
# [9] = biological target: Neu5Ac(a2-8)Neu5Ac
# Summary of the method: as §1
# [10] = biological target: Neu5Ac(a2-8)Neu5Ac(a2-3)Gal(b1-3)GalNAc(b1-4)[Neu5Ac(a2-3)]Gal(b1-4)Glc
# Summary of the method: as §1
# [11] = biological target: Neu5Ac(a2-8)Neu5Ac(a2-3)Gal(b1-3)GalNAc(b1-4)[Neu5Ac(a2-8)Neu5Ac(a2-3)]Gal(b1-4)Glc
# Summary of the method: as §1
# [12] = biological target: Neu5Ac(a2-8)Neu5Ac(a2-3)Gal(b1-4)Glc
# Summary of the method: as §1
# [13] = biological target: Neu5Ac(a2-8)Neu5Ac(a2-3)Gal(b1-4)GlcNAc
# Summary of the method: as §1
# [14] = biological target: Neu5Ac(a2-8)Neu5Ac(a2-3)[Gal(b1-3)GalNAc(b1-4)]Gal(b1-4)Glc
# Summary of the method: as §1
# [15] = biological target: Neu5Ac(a2-8)Neu5Ac(a2-3)[GalNAc(b1-4)]Gal(b1-4)Glc
# Summary of the method: as §1
# [16] = biological target: Neu5Ac(a2-8)Neu5Ac(a2-8)Neu5Ac
# Summary of the method: as §1
# [17] = biological target: Neu5Ac(a2-8)Neu5Ac(a2-8)Neu5Ac(a2-3)Gal(b1-4)Glc
# Summary of the method: as §1
# [18] = biological target: Neu5Ac(a2-8)Neu5Ac(a2-8)Neu5Ac(a2-3)[Gal(b1-3)GalNAc(b1-4)]Gal(b1-4)Glc
# Summary of the method: as §1
# [19] = biological target: Neu5Ac(a2-8)Neu5Ac(a2-8)Neu5Ac(a2-3)[GalNAc(b1-4)]Gal(b1-4)Glc
# Summary of the method: as §1
# [20] = biological target: Neu5Ac(a2-8)Neu5Ac(a2-8)Neu5Ac(a2-8)Neu5Ac(a2-3)[GalNAc(b1-4)]Gal(b1-4)Glc
# Summary of the method: as §1
# [21] = biological target: Neu5Ac(a2-8)Neu5Gc(a2-3)Gal(b1-4)GlcNAc
# Summary of the method: as §1
# [22] = biological target: Neu5Ac(b2-6)Gal(b1-4)GlcNAc
# Summary of the method: as §1
# [23] = biological target: Neu5Ac(b2-6)GalNAc
# Summary of the method: as §1
# [24] = biological target: Neu5Ac9Ac(a2-3)Gal(b1-3)GlcNAc
# Summary of the method: as §1
# [25] = biological target: Neu5Ac9Ac(a2-3)Gal(b1-4)GlcNAc
# Summary of the method: as §1
# [26] = biological target: Neu5Ac9Ac(a2-6)Gal(b1-4)GlcNAc
# Summary of the method: as §1
# [27] = biological target: Neu5Gc(a2-3)Gal(b1-3)GlcNAc
# Summary of the method: as §1
# [28] = biological target: Neu5Gc(a2-3)Gal(b1-3)[Fuc(a1-4)]GlcNAc
# Summary of the method: as §1
# [29] = biological target: Neu5Gc(a2-3)Gal(b1-4)Glc
# Summary of the method: as §1
# [30] = biological target: Neu5Gc(a2-3)Gal(b1-4)GlcNAc
# Summary of the method: as §1
# [31] = biological target: Neu5Gc(a2-3)Gal(b1-4)GlcNAc(b1-3)Gal(b1-4)GlcNAc(b1-2)Man(a1-3)[Neu5Gc(a2-3)Gal(b1-4)GlcNAc(b1-3)Gal(b1-4)GlcNAc(b1-2)Man(a1-6)]Man(b1-4)GlcNAc(b1-4)GlcNAc
# Summary of the method: as §1
# [32] = biological target: Neu5Gc(a2-3)Gal(b1-4)[Fuc(a1-3)]GlcNAc
# Summary of the method: as §1
# [33] = biological target: Neu5Gc(a2-6)Gal(b1-4)GlcNAc
# Summary of the method: as §1
# [34] = biological target: Neu5Gc(a2-6)GalNAc
# Summary of the method: as §1
# [35] = biological target: Neu5Gc(a2-8)Neu5Ac(a2-3)Gal(b1-4)GlcNAc
# Summary of the method: as §1
# [36] = biological target: Neu5Gc(a2-8)Neu5Gc(a2-3)Gal(b1-4)GlcNAc
# Summary of the method: as §1
# [37] = biological target: Neu5Gc(a2-8)Neu5Gc(a2-3)Gal(b1-4)GlcNAc(b1-3)Gal(b1-4)GlcNAc
# Summary of the method: as §1
# [38] = biological target: Neu5Gc(a2-8)Neu5Gc(a2-6)Gal(b1-4)GlcNAc
# Summary of the method: as §1
# [39] = biological target: Neu5Gc(b2-6)Gal(b1-4)GlcNAc
# Summary of the method: as §1
binder,measurement,setting,value
B1,glycan array binding signal (z-score),[1],0.165
same,glycan array binding signal (z-score),[2],0.13
same,glycan array binding signal (z-score),[3],3.37
same,glycan array binding signal (z-score),[4],1.46
same,glycan array binding signal (z-score),[5],0.867
same,glycan array binding signal (z-score),[6],-0.108
same,glycan array binding signal (z-score),[7],0.702
same,glycan array binding signal (z-score),[8],-0.564
same,glycan array binding signal (z-score),[9],-0.571
same,glycan array binding signal (z-score),[10],0.148
same,glycan array binding signal (z-score),[11],0.171
same,glycan array binding signal (z-score),[12],-0.018
same,glycan array binding signal (z-score),[13],-0.151
same,glycan array binding signal (z-score),[14],-0.051
same,glycan array binding signal (z-score),[15],-0.419
same,glycan array binding signal (z-score),[16],-0.212
same,glycan array binding signal (z-score),[17],0.027
same,glycan array binding signal (z-score),[18],2.59
same,glycan array binding signal (z-score),[19],-0.385
same,glycan array binding signal (z-score),[20],-0.249
same,glycan array binding signal (z-score),[21],-0.455
same,glycan array binding signal (z-score),[22],-0.803
same,glycan array binding signal (z-score),[23],-0.919
same,glycan array binding signal (z-score),[24],-0.747
same,glycan array binding signal (z-score),[25],0.493
same,glycan array binding signal (z-score),[26],0.2
same,glycan array binding signal (z-score),[27],0.733
same,glycan array binding signal (z-score),[28],0.939
same,glycan array binding signal (z-score),[29],-0.09
same,glycan array binding signal (z-score),[30],-0.419
same,glycan array binding signal (z-score),[31],2.24
same,glycan array binding signal (z-score),[32],-0.108
same,glycan array binding signal (z-score),[33],-0.176
same,glycan array binding signal (z-score),[34],-0.069
same,glycan array binding signal (z-score),[35],2.65
same,glycan array binding signal (z-score),[36],1.37
same,glycan array binding signal (z-score),[37],-0.897
same,glycan array binding signal (z-score),[38],1.93
same,glycan array binding signal (z-score),[39],-0.206

# Random excerpt: 3 entries already listed.
binder,measurement,setting,value
B1,glycan array binding signal (z-score),[32],-0.108
same,glycan array binding signal (z-score),[9],-0.571
same,glycan array binding signal (z-score),[26],0.2
